Results: PubChem BioAssay AID1259415 (National Center for Advancing Translational Sciences (NCATS), 2018)
Hit rate of the full screen: of about 410,000 compounds, about 18,000 (4.4%) were called active. Inconclusive results, whose numbers are uncertain, are shown with a selection of clear calls. No stated cut-off is given here; in the data, active means activity change below about -60%; inconclusive means no clear call, values can overlap the other calls; inactive means above about -39%.
On the % scale 0 is the no-effect control and ±100 the full control effect.

Test: qHTS Assay for inhibitors of the human cytomegalovirus (HCMV)
Details: HFF cells, HCMV-luciferase reporter, 72 h; at 57.5 µM; hits give low values
How it was run: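 Luciferase read-out from HCMV-luciferase-infected HFFs (MOI 1 PFU/cell) 72 h post infection at 37C; compounds added after 16 h cell attachment; activity normalized between buffer-only basal and Salinomycin (10uM) inhibitor controls.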
For `Cc1ccccc1N1C(=O)C(Cc2ccc(F)cc2)S/C1=C(\C#N)C(N)=O` (stereo not drawn), the activity change, negative = inhibition was inconclusive: -42.7%.
For `Cc1nc2ccccc2cc1OCc1ccc(Cl)cc1`, the activity change, negative = inhibition was active: -75.4%.
In the case of `CCN(Cc1ccccc1)C(=O)c1ccc(NC(=O)c2ccc(OC)cc2)cc1`, the activity change, negative = inhibition is reported as inconclusive: -52.3%.
For `OCCN(Cc1ccccc1)CC1CC2C=CC1C2` (stereo not drawn), the activity change, negative = inhibition was inconclusive: -40.1%.
For `CC(=O)Nc1cccc(NC(=O)c2ccccc2OCc2ccccc2)c1`, the activity change, negative = inhibition was inconclusive: -49.6%.
For `COC(=O)/C=C1/S/C(=N/NC(=O)c2ccccc2OC)NC1=O`, the activity change, negative = inhibition was inactive: 42%.
In the case of `COCCN(Cc1ccccc1)C(=S)Nc1ccc(OC(F)F)cc1`, the activity change, negative = inhibition is reported as inconclusive: -46.3%.
For `O=C(OC1CCN(c2ncc(C(F)(F)F)cc2Cl)CC1)c1ccc(Cl)cc1`, the activity change, negative = inhibition was inconclusive: -48.2%.
In the case of `CCOC(=O)c1cnc2c(c(C)nn2CC)c1Cl`, the activity change, negative = inhibition is reported as inconclusive: -49.1%.
For `O=S(=O)([N-]c1nc2ccccc2nc1-[n+]1ccc(Cc2ccccc2)cc1)c1ccc(Br)s1`, the activity change, negative = inhibition was active: -110%.
In the case of `CC1(C)Cc2[nH]c3ccccc3c2C(C)(C)N1`, the activity change, negative = inhibition is reported as inconclusive: -43.8%.
In the case of `CCOc1ccc(S(=O)(=O)N2CCC(c3ccccc3)CC2)cc1C(=O)O`, the activity change, negative = inhibition is reported as inconclusive: -53.1%.
With `Cc1cc2cccc(C)c2nc1SCC(=O)NNC(=O)c1ccco1` the activity change, negative = inhibition was inconclusive: -49.7%.
In the case of `CC(C(=O)N1CCc2ccccc21)N1CCN(S(=O)(=O)c2cccs2)CC1` (stereo not drawn), the activity change, negative = inhibition is reported as inactive: -4.82%.
For `CC(C)CCNC(=O)CN1C(=O)CSc2ccc(S(=O)(=O)N3CCC(C)CC3)cc21`, the activity change, negative = inhibition was inactive: -24.2%.
In the case of `Cc1c(Cl)cccc1NC(=S)NCC(C)C`, the activity change, negative = inhibition is reported as inconclusive: -46.5%.
In the case of `O=C(CSc1nc2cc(C(F)(F)F)ccc2n1Cc1ccccc1)NC1CCS(=O)(=O)C1` (stereo not drawn), the activity change, negative = inhibition is reported as inactive: -18.4%.
With `Cc1ccc(S(=O)(=O)N2CCCCC2)cc1C(=O)OC(C)C(=O)NC1CCCCC1C` (stereo not drawn) the activity change, negative = inhibition was inactive: -27.9%.
For `COc1ccc(-c2nnc(SCC(=O)NNC(=O)c3ccc(C)cc3)o2)cc1`, the activity change, negative = inhibition was inconclusive: -55.6%.
For `COc1ccc(Cc2nc3ccc(C(=O)NCc4ccccc4C)cc3o2)cc1`, the activity change, negative = inhibition was active: -89.9%.
In the case of `COc1cccc(OCc2cc(C(=O)NCc3cnc4ccccn34)no2)c1`, the activity change, negative = inhibition is reported as inconclusive: -55.3%.
With `COc1cccc(NC(=O)CSc2nnc(Cc3ccc(C)cc3)c(=O)n2N)c1` the activity change, negative = inhibition was inconclusive: -47%.
With `COc1ccc(OCC(=O)Nc2ccc3nc(C)sc3c2)cc1` the activity change, negative = inhibition was inconclusive: -50.6%.
In the case of `CC(=O)C(N=Nc1ccccc1)(Sc1nnc(-c2ccccc2)n1-c1ccccc1)C(C)=O`, the activity change, negative = inhibition is reported as inconclusive: -41.7%.
In the case of `O=C(Nc1ccccc1)c1ccccc1NC(=O)[C@H]1CCCC[C@H]1C(=O)O`, the activity change, negative = inhibition is reported as inconclusive: -46.1%.
In the case of `Fc1ccc(CNc2ncnc3cc(Cl)ccc23)cc1`, the activity change, negative = inhibition is reported as inconclusive: -54.4%.
In the case of `CCOC(=O)Cc1cnc(NC(=O)CSc2nc(N)cc(=O)[nH]2)s1`, the activity change, negative = inhibition is reported as inconclusive: -44.1%.
For `Cc1ccc(S(=O)(=O)N2CCCCC2)cc1NC(=O)Cc1c[nH]c2ccccc12`, the activity change, negative = inhibition was inactive: 12.6%.
In the case of `S=C1NC(C23CC4CC(CC(C4)C2)C3)=CC(c2ccc3c(c2)OCO3)N1` (stereo not drawn), the activity change, negative = inhibition is reported as inconclusive: -58.6%.
For `O=C(NCC1CCCO1)/C(=C/c1ccccc1F)NC(=O)c1ccccc1` (stereo not drawn), the activity change, negative = inhibition was inactive: 13.4%.
For `CC(OC(=O)CCN=C1NS(=O)(=O)c2ccccc21)C(=O)Nc1ccc(F)cc1` (stereo not drawn), the activity change, negative = inhibition was inconclusive: -47.2%.
For `O=C(Cc1cccc2ccccc12)NCCOc1ccccc1F`, the activity change, negative = inhibition was active: -62.6%.
With `Clc1cccc(Cl)c1Cn1c(-c2cccnc2Cl)nc2ccccc21` the activity change, negative = inhibition was inconclusive: -51%.
For `CN(C)c1ccc(/C=N/NC(=O)c2nnn(-c3nonc3N)c2CN2CCCCCC2)cc1`, the activity change, negative = inhibition was inconclusive: -44.7%.
For `N#Cc1c(N)nc2c(c1N)CC(CO)O2` (stereo not drawn), the activity change, negative = inhibition was inactive: -14.1%.
With `COc1ccc(-c2noc(CSCC(=O)Nc3cc(OC)c(OC)c(OC)c3)n2)cc1OC` the activity change, negative = inhibition was inactive: 3.29%.
For `COc1cccc(NC(=S)N/N=C2\CC3CCC2(C)C3(C)C)c1` (stereo not drawn), the activity change, negative = inhibition was inactive: 29.3%.
For `CC1CC(NC(=O)C2C3CCC(O3)C2C(=O)O)CC(C)(C)C1` (stereo not drawn), the activity change, negative = inhibition was inconclusive: -55.4%.
With `Cc1ccc(O)c(NS(=O)(=O)c2cccc3nsnc23)c1` the activity change, negative = inhibition was inconclusive: -51.7%.
With `CN(CC(O)COc1ccc(OCC(O)CN(C)C2CCCCC2)cc1)C1CCCCC1` (stereo not drawn) the activity change, negative = inhibition was inconclusive: -54.5%.
With `COc1ccc(NC(=O)CCNS(=O)(=O)c2ccc3c(c2)c(=O)n(C)c(=O)n3C)cc1OC` the activity change, negative = inhibition was inconclusive: -44.6%.
With `COc1ccc(CCNC(=O)c2ccc(-c3ccc([N+](=O)[O-])cc3)o2)cc1OC` the activity change, negative = inhibition was active: -68.8%.
With `CC(C)c1cccc(C(C)C)c1OCCCCCN1CCOCC1` the activity change, negative = inhibition was inconclusive: -47.8%.
With `O=S(=O)(c1ccc(OC(F)(F)F)cc1)N1CCC(c2nnnn2-c2ccc(F)cc2)CC1` the activity change, negative = inhibition was active: -73.1%.
With `Cc1ccccc1-n1c(/C=C/c2c(C)[nH]c3ccccc23)nc2ccccc2c1=O` the activity change, negative = inhibition was inconclusive: -56.9%.
For `O=C(Nc1ccc2c(c1)OCCO2)NC12CC3CC(CC(C3)C1)C2`, the activity change, negative = inhibition was inactive: 51.7%.
With `CSc1ccc(-c2nc(CSCC(=O)NCCCN3CCOCC3)c(C)o2)cc1` the activity change, negative = inhibition was inactive: 14.4%.
In the case of `O=C(COc1ccc(Cl)cc1Cl)NCC1(N2CCOCC2)CCCCC1`, the activity change, negative = inhibition is reported as inconclusive: -52.7%.
With `Cc1ccc(-n2c(C)cc(C(=O)C(=O)Nc3ccccc3)c2C)c(C)c1` the activity change, negative = inhibition was inconclusive: -41.6%.
In the case of `Cc1cccc(C(=O)OCc2cc(=O)n3ccsc3n2)c1`, the activity change, negative = inhibition is reported as inactive: 11.8%.
With `O=C(COC(=O)/C=C/c1ccc(F)cc1)NCc1ccc2c(c1)OCO2` the activity change, negative = inhibition was inconclusive: -45.7%.
In the case of `COC(c1ccccc1)c1nnc(CCC(=O)N2CCN(CCOc3ccccc3)CC2)o1` (stereo not drawn), the activity change, negative = inhibition is reported as inconclusive: -51.3%.
In the case of `CCOCCCNC(=O)c1ccc(-n2c(-c3ccccc3)cc3c2CCCC3)cc1`, the activity change, negative = inhibition is reported as active: -66%.
In the case of `COCCCN(C(=S)Nc1cc(Cl)cc(Cl)c1)C(C)c1ccccn1` (stereo not drawn), the activity change, negative = inhibition is reported as inconclusive: -47.9%.
In the case of `COc1ccccc1N1CCN(C(=O)CCC(=O)Nc2nnc(CC(C)C)s2)CC1`, the activity change, negative = inhibition is reported as inconclusive: -47.3%.
In the case of `CCn1c(=NC(=O)C2COc3ccccc3O2)sc2c(C)ccc(OC)c21` (stereo not drawn), the activity change, negative = inhibition is reported as inconclusive: -54.6%.
For `CCC(=NCCc1c[nH]c2ccccc12)c1c(O)n(C)c(=O)n(C)c1=O`, the activity change, negative = inhibition was active: -75.1%.
In the case of `COc1cccc(CNn2c(-c3cccc(C)c3)nc3ccccc3c2=O)c1O`, the activity change, negative = inhibition is reported as inconclusive: -43.2%.
For `COc1cc(Cl)nn(-c2ccccc2)c1=O`, the activity change, negative = inhibition was inactive: -38.7%.
In the case of `CN(C)S(=O)(=O)c1cccc(NC(=O)COc2nc3ccccc3nc2N2CCOCC2)c1`, the activity change, negative = inhibition is reported as inconclusive: -46.7%.
For `CC1CCCN(C(=O)c2cc3ccc4cccnc4c3[nH]2)C1` (stereo not drawn), the activity change, negative = inhibition was active: -81%.
For `CCN(CC)c1ccc2cc(C(=O)Nc3ccccn3)c(=O)oc2c1`, the activity change, negative = inhibition was inactive: 82.9%.
For `Cc1ccc(-n2c(C)cc(-c3csc(N)n3)c2C)cc1`, the activity change, negative = inhibition was inconclusive: -57.4%.
With `O=C(NCc1n[nH]c(=S)n1-c1ccc(Br)cc1)c1cccs1` the activity change, negative = inhibition was inconclusive: -59.6%.
With `CCOc1ccc(-c2nc(-c3ccccc3)c(-c3ccccc3)[nH]2)cc1OCC` the activity change, negative = inhibition was inconclusive: -44.1%.
For `CN(C)CCC[C@]1(c2ccc(F)cc2)OCc2cc(C#N)ccc21`, the activity change, negative = inhibition was inconclusive: -50.9%.
With `Cc1cc(CN2C(=O)c3ccccc3C2=O)cc(N2CCOCC2)c1` the activity change, negative = inhibition was inconclusive: -43.5%.
For `Cc1cccc2nc(-c3ccccn3)c(Nc3ccccc3)n12`, the activity change, negative = inhibition was active: -82.4%.
With `CC(=O)Nc1ccc(N/C(C)=C/C(=O)c2cccnc2)cc1` the activity change, negative = inhibition was active: -61.5%.
For `N/C(CS(=O)(=O)c1ccc(F)cc1)=N\O`, the activity change, negative = inhibition was inactive: 4.29%.
With `Cn1c(=O)c2c(nc(N/N=C/c3cccs3)n2Cc2ccccc2)n(C)c1=O` the activity change, negative = inhibition was inconclusive: -51.5%.
In the case of `COc1cc(S(=O)(=O)N(Cc2ccco2)C2CCCC2)ccc1-n1cnnn1`, the activity change, negative = inhibition is reported as inconclusive: -52.6%.
For `CC(C)C(Cl)=NOC(=O)Nc1ccc(F)cc1`, the activity change, negative = inhibition was inconclusive: -43.8%.
For `Cc1ccc(CNC(=O)Cn2ccc3cc(S(=O)(=O)N4CCCC4)ccc32)o1`, the activity change, negative = inhibition was inactive: 24.5%.
For `N/C(=N\OC(=O)c1cccc(Cn2cc(C(F)(F)F)ccc2=O)c1)c1ccccc1`, the activity change, negative = inhibition was inconclusive: -43.9%.
In the case of `O=C1C2C3C=CC(C3)C2C(=O)N1c1ccc(-c2nc3ccccc3c(=O)o2)cc1` (stereo not drawn), the activity change, negative = inhibition is reported as inconclusive: -40.8%.
For `CC(C#N)Sc1ncnc2sc3c(c12)CCC3` (stereo not drawn), the activity change, negative = inhibition was inconclusive: -41.1%.
With `O=C(Nc1ccc(Cl)cc1)c1ccc2nsnc2c1` the activity change, negative = inhibition was inactive: 8.92%.
With `CN(C)C(=O)CCc1ccc2c3c([nH]c2c1)[C@]1(CCC2CCCC2)[C@@H](C(=O)N2CCOCC2)C[C@H](CC(=O)NCC24CC5CC(CC(C5)C2)C4)C(=O)N1CC3` the activity change, negative = inhibition was inactive: -13.8%.
With `Cc1ccc(-n2c(CSc3nc(C)cc(C)n3)nnc2SCC(=O)Nc2nccs2)cc1` the activity change, negative = inhibition was inconclusive: -40.8%.
In the case of `CCN(CC)S(=O)(=O)c1ccc(N2CCCC2)c(NC(=O)c2ccccc2OC)c1`, the activity change, negative = inhibition is reported as inactive: -35.6%.
For `COc1ccc(C(=O)NC2CCCc3ccccc32)cc1` (stereo not drawn), the activity change, negative = inhibition was active: -70.4%.
In the case of `Cc1nc(N2CCCCC2)c(C#N)c(C)c1[N+](=O)[O-]`, the activity change, negative = inhibition is reported as inconclusive: -41.6%.
For `O=C(Nc1ccc(-n2cccn2)cc1)C1CCN(Cc2ccsc2)CC1`, the activity change, negative = inhibition was inconclusive: -50.5%.
In the case of `Cc1ccc(S(=O)(=O)CCC(=O)Nc2nc(-c3ccccn3)cs2)cc1`, the activity change, negative = inhibition is reported as inconclusive: -48.5%.
With `CCOC(=O)c1nn(-c2ccccc2)c(C#N)c1N` the activity change, negative = inhibition was inconclusive: -42.4%.
With `Cc1ccc(C(=O)N2CC=C(c3ccccc3)CC2)s1` the activity change, negative = inhibition was inconclusive: -41.2%.
In the case of `Cn1nc(C(C)(C)C)cc1C(=O)NCC1CCN(C(=O)C(=O)c2cc3ccccc3o2)CC1`, the activity change, negative = inhibition is reported as inconclusive: -52%.
